Results from the supplement of paper PMC5949888.
Most values lie at the floor of the assay. Slopes are relative: functional sequences can read slightly below zero.

test system: Saccharomyces cerevisiae PS128 hsf1 delta, HSF1(1-493) fusion; experiment: growth estimate (transactivation domain function in HSF1 fusion, heat-shock survival) (a.u. (slope of normalised read count over time)); higher = stronger growth at 37°C, i.e. more transactivation activity; conditions: library: random library
Method: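 Random 60-nt DNA library encoding peptides of up to 20 aa, fused to the C-terminus of yeast HSF1 residues 1-493 (C-terminal TAD deleted) and expressed from the native HSF1 promoter on a CEN plasmid in hsf1-deleted S. cerevisiae PS128. Cells were selected at 37°C on -trp 5-FOA plates for 0, 2, 4, 6 and 8 days and amplicons were sequenced. Growth estimate is the slope of a robust linear fit of total-sum-normalised read counts (normalised to the first time point) over time, using at least 2 replicates. Sequences are classed functional (TAD activity) above a threshold of -0.13, set from stop-codon control sequences.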

Row | Substance | growth estimate
1 | CLWCPLFN | < -0.25
2 | SCDL | < -0.25
3 | RLCYHPSRPYAGGSCGAHRS | < -0.25
4 | KSNLRGEWQDSK | < -0.25
5 | SGSQRDRSSI | < -0.25
6 | GHPPSWGEYKSKTPF | < -0.25
7 | VLKEKVLF | 0.0622
8 | EVCLFKHNVASNRGERAAES | < -0.25
9 | ETRARRGGILQYLNWSFRLS | < -0.25
10 | SERHPVAYMVCGEGAGYCYW | < -0.25
11 | VCGREESPSGRRT | < -0.25
12 | VNRDDAETYSLTSRQYSLYC | < -0.25
13 | GLPYW | < -0.25
14 | VAGKEYLTGRPN | < -0.25
15 | GFHVCATWYGRRTCAWDGLQ | < -0.25
16 | LHPGQSVLSAGDLYECFFTS | < -0.25
17 | DSVREPGPKIWSAKPPCSGS | < -0.25
18 | SRIVTSISYAGTAPGA | < -0.25
19 | SRLVVSSGSYDDRRNSLKAG | < -0.25
20 | LGYGLHGSYSLRENIWAHAC | < -0.25
21 | RGWSGTHGHSGGLQATHSHI | < -0.25
22 | MGGYNRGHGVADRKGMMSKR | < -0.25
23 | SQRRSEMPSTRIVSVVTVRR | < -0.25
24 | RYIALEE | < -0.25
25 | SFL | < -0.25

As entered above:
Entry for VLKEKVLF under growth estimate: 0.0622
Entry for MGGYNRGHGVADRKGMMSKR under growth estimate: < -0.25

Next part.

Row | Substance | growth estimate
26 | TIVPYADSEIGLSCAA | < -0.25
27 | LGNRLAIINWSGAR | < -0.25
28 | CFATCLVWRVE | < -0.25
29 | RFPTGTCEM | < -0.25
30 | RPSMGNSGCRSIISKRQWND | < -0.25
31 | CPPAP | < -0.25
32 | VWIYGQ | -0.246
33 | LDGLAIGAT | < -0.25
34 | TNPLV | < -0.25
35 | TVDKCDAILASLSGLADTSR | < -0.25
36 | LGGASLIERRIDKPLGMSSV | < -0.25
37 | RND | < -0.25
38 | ARQ | < -0.25
39 | GKVSIAVRSLDQPIGDWLAR | < -0.25
40 | APSERTAGQWEPWTRLRREG | < -0.25
41 | RGAARAQAGRGMITYAWHVA | < -0.25
42 | FCLVIGIREYIMG | < -0.25
43 | RFDDRLL | < -0.25
44 | RVSVFLPAPEFMVRQAPTEE | < -0.25
45 | QDGCSGEMGLERTTISVLME | < -0.25
46 | RLSVNQSAWNFFSDGLIWCC | -0.227
47 | IGHAKKESGCVSPIGRHSST | < -0.25
48 | DKAQSPNYHDPIRWNPRPPA | < -0.25
49 | SPRRGLSRVKQRYQGSGRRD | < -0.25
50 | NRSPYDGP | < -0.25

Row | Substance | growth estimate
51 | VTPDRD | < -0.25
52 | QPLSVV | < -0.25
53 | MLNGESSSVASVVKP | < -0.25
54 | RLC | < -0.25
55 | PSDRPSAR | -0.202
56 | VWH | < -0.25
57 | KRPIKCVGKSQSRGKFDDSA | < -0.25
58 | SLSFGGL | < -0.25
59 | ESGGLRWVVGLVNFQQPGRL | < -0.25
60 | FISVCGRTWPLHSVLERPTA | < -0.25
61 | HLFRVTDSRYVDFILSAVKV | < -0.25
62 | GVYGLVMVDCILVRLRKFRL | < -0.25
63 | GPSITIGKQQDL | < -0.25
64 | RVALRCKPSNVHRRDSAAVT | < -0.25
65 | LIDRKALRTCR | < -0.25
66 | SVSHTLDGN | < -0.25
67 | CSEYPMSTSLEAPVG | < -0.25
68 | EPEKRGMFPSEGTAGAELWT | < -0.25
69 | GSAIATSDRN | -0.245
70 | GIPEL | -0.231
71 | PRGVRGDVNCGFYVCGTGSH | < -0.25
72 | SYMSE | < -0.25
73 | RRVGSFTTTTFFADKHYSKR | < -0.25
74 | LFLTPARPTVSD | < -0.25

Part of the list above, as labelled records.
ESGGLRWVVGLVNFQQPGRL
  growth estimate: < -0.25
CSEYPMSTSLEAPVG
  growth estimate: < -0.25
GIPEL
  growth estimate: -0.231
